Results are given in words; binding and its absence hold for the method and conditions named. Binding seen in cells or lysates may run through a third protein. A yes stands for co-enrichment or nearness to the bait. Other partners may have been found. Sequences can lack the tags named with a protein.

The chains behind the UniProt entries cited, without tags or fusion partners.
UniProt Q6PEC4: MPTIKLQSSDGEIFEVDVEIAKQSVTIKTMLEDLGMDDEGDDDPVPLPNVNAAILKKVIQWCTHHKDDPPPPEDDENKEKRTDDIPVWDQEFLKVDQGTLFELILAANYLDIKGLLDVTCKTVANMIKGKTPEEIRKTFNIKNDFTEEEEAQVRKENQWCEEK

The target in experiment [1] is T1, glutathione-S-transferase-fused wild-type aryl hydrocarbon receptor interacting protein (AIP) (human) (UniProt O00170).
T1 sequence: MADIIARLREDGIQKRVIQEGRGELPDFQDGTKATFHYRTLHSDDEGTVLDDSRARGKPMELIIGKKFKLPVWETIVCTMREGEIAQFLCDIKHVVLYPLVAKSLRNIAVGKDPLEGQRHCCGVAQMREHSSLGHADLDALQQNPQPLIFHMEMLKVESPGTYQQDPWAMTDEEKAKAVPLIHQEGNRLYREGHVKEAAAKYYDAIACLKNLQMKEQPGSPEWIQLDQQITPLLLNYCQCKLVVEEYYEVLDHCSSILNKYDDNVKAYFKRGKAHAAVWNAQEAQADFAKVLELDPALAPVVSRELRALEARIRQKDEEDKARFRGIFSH
The experiment can be described thus: affinity purification with mass spectrometry; pull-down from rat GH-secreting GH3 cells with glutathione-S-transferase-fused WT and mutant AIP as baits, followed by quantitative mass spectrometry; only the target purified.

Experiment [2] has as its target T2, glutathione-S-transferase-fused AIP p.R304* mutant (human) (UniProt O00170).
T2 sequence: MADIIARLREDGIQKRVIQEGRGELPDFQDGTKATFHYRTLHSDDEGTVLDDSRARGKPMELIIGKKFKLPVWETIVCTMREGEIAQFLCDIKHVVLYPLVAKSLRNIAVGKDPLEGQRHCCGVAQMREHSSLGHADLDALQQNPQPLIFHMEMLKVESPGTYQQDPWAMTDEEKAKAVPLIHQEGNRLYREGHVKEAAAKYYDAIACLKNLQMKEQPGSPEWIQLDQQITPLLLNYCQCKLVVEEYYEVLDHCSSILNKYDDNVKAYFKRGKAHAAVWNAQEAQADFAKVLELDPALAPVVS
Described as above.

Turning to “SKP1 (from GH3 cells) (from UniProt Q6PEC4 1-163)”, the binding entry in experiment [1] and in experiment [2] was “binds” each time.

B1: F-box containing protein FBXO3 (from GH3 cells) (protein, UniProt D4ABP9 1-480)
chain: MAAVEAETGLLTLESLPTDPLLLILSFVDYRDLINCCYVSRRLSQLSTHDPLWRRHCKKYWLITEEEKARKNQCWKSLFIATYSDVGRYINHYAAIKKAWDDLKKYLEPRCPRMVLSLKEGAREEDLDAVEAQIGCKLPDDYRCSYRIHNGQKLVVPGLLGSMALSNHYRSEDLLDVDTAAGGFQQRQGLKYCLPLTFCIHTGLSQYIAVEAAEGRNKNEVFYQCPDQMARNPAAIDMFIIGATFTDWFTSYVNNVVSGGFPIIRDQIFRYIHDPECVATTGDITVSVSTSFLPELSSVHPPHYFFTYRIRIEMSRDALPEKACQLDSRYWRITNAKGDVEEVQGPGVVGEFPIISPGRIYEYTSCTTFSTTSGYMEGYYTFHFLYFKDKVFNVAIPRFHMACPTFRVSIARLEMGPDEYEEMEEEAEEEEEEENDDSADMDESDESDEDENESDEGEGEERRRRVFDVPIRRRRCSRLF
Regarding B1, the binding entry in experiment [1] and in experiment [2] was “binds” each time.

The values are drawn from paper PMC4971335.
